Results deposited as PubChem BioAssay AID743121 (NCATS, 2013)
The whole screen tested about 26,000 reagents; shown is a part drawn at random. In the full data, 167 (0.63%) are marked active. 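Calls are per gene from RSA p-values that are not deposited; an individual active-marked siRNA can sensitise only weakly.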 Entries without a mark were called inactive. The numbers tell different reagents against one gene apart. Further read-outs or replicates are left out here.

Test: 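Genes whose silencing strengthens cell killing by camptothecin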 (primary screen)
Cells: MDA-MB-231 cells, a human breast cancer line
Reagent: single siRNA against human genes, 20 nM siRNA (0.8 pmol per well)
Duration: 120 h (drug added 48 h after transfection, read 72 h later)
Challenge: camptothecin 20 nM (about EC30) for 72 h; vehicle 0.1% DMSO in parallel plates
Measurement: 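CellTiter-Glo ATP signal, scaled to control siRNA as percent viability; sensitisation given as log2 of untreated divided by camptothecin-treated viability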
Reading the numbers: log2 vehicle/camptothecin viability: higher = stronger sensitisation to camptothecin; viability with camptothecin: higher = more viable cells
Units: viability with camptothecin in % of control
Rule for the call: 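Each gene scored by redundant siRNA activity (RSA) over its individual siRNA ratios; a gene is called active at p < 0.001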

{"gene symbol": "ITLN1 (GeneID 55600)", "reagent": 1, "log2 vehicle/camptothecin viability": -0.185, "viability with camptothecin": 91.9}
{"gene symbol": "ITLN1 (GeneID 55600)", "reagent": 2, "log2 vehicle/camptothecin viability": 0.0763, "viability with camptothecin": 79.3}
{"gene symbol": "ITLN1 (GeneID 55600)", "reagent": 3, "log2 vehicle/camptothecin viability": 0.0674, "viability with camptothecin": 30.6}
{"gene symbol": "ITLN1 (GeneID 55600)", "reagent": 4, "log2 vehicle/camptothecin viability": -0.373, "viability with camptothecin": 86}
{"gene symbol": "PNKP (GeneID 11284)", "reagent": 1, "log2 vehicle/camptothecin viability": -0.309, "viability with camptothecin": 103}
{"gene symbol": "PNKP (GeneID 11284)", "reagent": 2, "log2 vehicle/camptothecin viability": -0.0415, "viability with camptothecin": 100}
{"gene symbol": "PNKP (GeneID 11284)", "reagent": 3, "log2 vehicle/camptothecin viability": -0.167, "viability with camptothecin": 40.7}
{"gene symbol": "PNKP (GeneID 11284)", "reagent": 4, "log2 vehicle/camptothecin viability": -0.312, "viability with camptothecin": 55.9}
{"gene symbol": "NR3C2 (GeneID 4306)", "reagent": 1, "log2 vehicle/camptothecin viability": -0.291, "viability with camptothecin": 88.6}
{"gene symbol": "NR3C2 (GeneID 4306)", "reagent": 2, "log2 vehicle/camptothecin viability": -0.348, "viability with camptothecin": 83.6}
{"gene symbol": "NR3C2 (GeneID 4306)", "reagent": 3, "log2 vehicle/camptothecin viability": 0.024, "viability with camptothecin": 80.6}
{"gene symbol": "F13A1 (GeneID 2162)", "reagent": 1, "log2 vehicle/camptothecin viability": -0.203, "viability with camptothecin": 109}
{"gene symbol": "F13A1 (GeneID 2162)", "reagent": 2, "log2 vehicle/camptothecin viability": 0.0231, "viability with camptothecin": 28.9}
{"gene symbol": "F13A1 (GeneID 2162)", "reagent": 3, "log2 vehicle/camptothecin viability": -0.51, "viability with camptothecin": 44.5}
{"gene symbol": "F13A1 (GeneID 2162)", "reagent": 4, "log2 vehicle/camptothecin viability": -0.511, "viability with camptothecin": 110}

2 entries from above, set out differently:
gene symbol | reagent | log2 vehicle/camptothecin viability | viability with camptothecin
ITLN1 (GeneID 55600) | 2 | 0.0763 | 79.3
ITLN1 (GeneID 55600) | 3 | 0.0674 | 30.6
